Results: PubChem BioAssay AID1347423 (Functional Genomics Laboratory (NCATS/FGL), 2020)
About 210 (0.4%) of roughly 52,000 sequences were called active.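 Rule for the calls: active = gene whose silencing raises cell survival under the drug, median off-target-corrected z-score across its silencing RNAs 2 or more; inactive = the rest.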 This is one part of the list.

Assay: Resistance to Poly (ADP-Ribose) Polymerase inhibitor: Gene Identification via Genome-wide siRNA Screen
Conditions: mouse BRCA2 R2336H ES cells, olaparib, CellTiter-Glo viability; hits give high values
Summary of the method: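 Mouse BRCA2 R2336H ES cells were reverse-transfected with siRNA (20 nM final), treated at 48 h with 500 nM olaparib, and read by CellTiter-Glo after 72 h. Scores: MAD-based z per siRNA, median per gene, seed off-target correction.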

Question: For “GGGUAUUUAUCUGAAGCCCTT against 0610009M14Rik”, which z-score is on record?
Answer: inactive: -0.302

Question: Which z-score does the source give for GGUGCUGACUGACAAAGAATT against Tnfaip1 here?
Answer: inactive: 0.987

Question: With “GGAUCUCCAGAAAGACUUUTT against 1700012P16Rik” as the sequence, how does the z-score read?
Answer: inactive: -2.05

Question: With CCAAGAGACCUUUGGACGATT against Tgfbrap1 as the sequence, how does the z-score read?
Answer: inactive: -2.4

Question: Which z-score does the source give for CCGUUCACAUGCAUCACUGTT against Olfr1378 here?
Answer: inactive: -1.4

Question: With “CCUAGAUUGAAAAUUGUCATT against 1700049G17Rik” as the sequence, how does the z-score read?
Answer: inactive: -0.329

Question: With CCGACAUUUUCGUCACCAGTT against Gabra1 as the sequence, how does the z-score read?
Answer: inactive: -1.71

Question: Which z-score does the source give for GGAUGGGAAGACUACCCGATT against Camta2 here?
Answer: inactive: 0.093

Question: With GCCUAAACAAGCCGAUGUGTT against Gap43 as the sequence, how does the z-score read?
Answer: inactive: -0.706

Question: With GGGACAUGUUUUGAUAAAGTT against Yy1 as the sequence, how does the z-score read?
Answer: inactive: -0.737

Question: Which z-score does the source give for GGAAAUGAAGCUAGUUUAATT against Usp38 here?
Answer: inactive: 2.81

Question: For CGCGAUUCUGGAUGAGAACTT against Cacnb3, which z-score is on record?
Answer: inactive: 0.038

Question: With GGCACGUCUGGACAACAUCTT against Cd22 as the sequence, how does the z-score read?
Answer: inactive: -0.993

Question: For GGCAAAUCCCGUUUCCAGATT against Hspb3, which z-score is on record?
Answer: inactive: 0.624

Question: Which z-score does the source give for CCGUAAGGAUGAAGAGAUATT against Casp8ap2 here?
Answer: inactive: -2.3

Question: Which z-score does the source give for GGAUGUGUCAGAAAAGUUATT against Lars2 here?
Answer: inactive: -0.535

Question: For “GGAAAUACGACAACAGCCATT against 2700097O09Rik”, which z-score is on record?
Answer: inactive: -1.72

Question: For GAGCUUUUCGCCAGAAGUGTT against Tcstv3, which z-score is on record?
Answer: inactive: -0.18

Question: With “GGCUUCAUUUCCUAUAAUGTT against 3321401G04Rik” as the sequence, how does the z-score read?
Answer: inactive: 0.165

Question: Which z-score does the source give for GCCAAAUGCGUUAUCAAUGTT against Gpd2 here?
Answer: inactive: -0.0952

Question: Which z-score does the source give for CCUCAUCGAUGCACUACCCTT against Lrfn4 here?
Answer: inactive: 0.324

Question: For GGUAAGGGUAAAGAUUCUUTT against Pgk2, which z-score is on record?
Answer: inactive: 0.349

Question: With CCGACUUGAGGUUUCAAAGTT against H3f3b as the sequence, how does the z-score read?
Answer: inactive: 0.775

Question: For “GACAGGCGGCCUUCCGAGATT against 6430559E15Rik”, which z-score is on record?
Answer: inactive: 0.861

Question: For CCUGAAGAAAGAAUCCCUATT against Og2x, which z-score is on record?
Answer: inactive: -0.802

Question: For “GCAGCUGGAUGCUACUAACTT against 4631423F02Rik”, which z-score is on record?
Answer: inactive: -0.245

Question: Which z-score does the source give for GCAAGAAAAGGUGCUAUCUTT against Vdrip here?
Answer: inactive: 0.767

Question: For “GCGAUUGUGCUUUUGAGCCTT against 5730590C14Rik”, which z-score is on record?
Answer: inactive: 1.21

Question: For GGCAAAAAGACUUUGAUAUTT against Dnajc1, which z-score is on record?
Answer: inactive: 0.675

Question: With “GCAUCAGUAGAAACCCACATT against 1700001D09Rik” as the sequence, how does the z-score read?
Answer: inactive: 1.63

Question: With GGGAGACAACCAAAGUGAATT against Cngb3 as the sequence, how does the z-score read?
Answer: inactive: -1.44

Question: For GGCCUUCAAUCACCUAGAGTT against Pde6g, which z-score is on record?
Answer: active: 2.23

Question: With CCACGGUUUCAUUUACUAATT against Tm7sf3 as the sequence, how does the z-score read?
Answer: inactive: -0.188

Question: Which z-score does the source give for CCACAUGAUGUAAAACUUATT against P4ha1 here?
Answer: inactive: 0.474

Question: Which z-score does the source give for GGAGGUAGGAAAGUGGAUCTT against Gdi1 here?
Answer: inactive: -0.316

Question: For GGAUUUAUUAGCCUACCUUTT against Catna2, which z-score is on record?
Answer: inactive: -0.436

Question: For CCCAUGGAUUGGCAAGUUGTT against Sat1, which z-score is on record?
Answer: inactive: -0.305

Question: For “GGUACUGUGUUCUGUCUGCTT against B230325K18Rik”, which z-score is on record?
Answer: inactive: 0.675

Question: For ACAGGCAAGAUGAGAGCGATT against Cutl1, which z-score is on record?
Answer: inactive: -1.34

Question: With “GGCCUUCACUAAGAGACGATT against C130073F10Rik” as the sequence, how does the z-score read?
Answer: inactive: 0.0405

Question: Which z-score does the source give for CCAUUAUGAGUGUGUUAAATT against Npc1 here?
Answer: inactive: -0.947

Question: With “GGAUGAAGAAGAUGAAGAUTT against D030028O16Rik” as the sequence, how does the z-score read?
Answer: inactive: -3.25

Question: For “CCGACAUCCUUGAUACGUUTT against 9030624J02Rik”, which z-score is on record?
Answer: inactive: 0.646

Question: For GUUGUGGUAUCUUGGGCAGTT against Olfr1217, which z-score is on record?
Answer: inactive: -0.478

Question: For GGAUUAUUACAUCGAGCUUTT against Idi1, which z-score is on record?
Answer: inactive: -0.934

Question: Which z-score does the source give for GGCGACCACUUUGUCUACATT against BC030417 here?
Answer: inactive: 0.283

Question: Which z-score does the source give for GGCCAUGGAGAACAUAUGCTT against Trpm8 here?
Answer: inactive: 0.103

Question: Which z-score does the source give for GGAGUGUGUGCUGUCAGAATT against Nr1h3 here?
Answer: inactive: 0.225

Question: With GGAGAGAUCAUACACUUUGTT against LOC210321 as the sequence, how does the z-score read?
Answer: inactive: -0.255

Question: Which z-score does the source give for GCUAUACGCUCAAGCUAAATT against Fbxl8 here?
Answer: inactive: 3.3

Question: With GGAUCUUUGAUAGUUGAGATT against Hspd1 as the sequence, how does the z-score read?
Answer: inactive: -0.876

Question: With GCUUACUUUGGAACACAAATT against Tex18 as the sequence, how does the z-score read?
Answer: inactive: 0.719

Question: With “GGUGGACAAGCAAGUCUAGTT against B230113M03Rik” as the sequence, how does the z-score read?
Answer: inactive: -2.14

Question: With “GGAUUUGCAAAGCCCAGUCTT against 6720457D02Rik” as the sequence, how does the z-score read?
Answer: inactive: 1.92

Question: For GUGAGAACAAACAGAUAAUTT against V1rc21, which z-score is on record?
Answer: inactive: 0.458

Question: For “GGGUGUCUUCUUGAACUGGTT against A930010E21Rik”, which z-score is on record?
Answer: inactive: -0.135

Question: For “GGAGGAAUACGUAUACUUCTT against B230399E16Rik”, which z-score is on record?
Answer: inactive: -1.02

Question: With GCCUAAUGAUUGCAUCCUATT against Flj39647 as the sequence, how does the z-score read?
Answer: inactive: 1.44

Question: For GGCCUUCCUUUUCUAUAGATT against Foxd2, which z-score is on record?
Answer: inactive: 0.312

Question: Which z-score does the source give for GACCAGAUUCUUACUUUGGTT against Olfr9 here?
Answer: inactive: -1.63

Question: Which z-score does the source give for GGAAAAUCUUAGGAAGAUGTT against Elf4 here?
Answer: inactive: 1.43

Question: For “GGUUGGUACAUUGUGACCUTT against 1110060F11Rik”, which z-score is on record?
Answer: inactive: 0.407

Question: Which z-score does the source give for CCAGGAAUAGAUAAACUCUTT against Olfr120 here?
Answer: inactive: -1.58

Question: With GCCUUUGUGUUACAAUAUGTT against Plekhc1 as the sequence, how does the z-score read?
Answer: inactive: -1.17

Question: Which z-score does the source give for CCAAAUAGAGAGCCUAAAUTT against Loxl2 here?
Answer: inactive: -0.68

Question: For GCCCGUUACUAUUGUUGAGTT against Incenp, which z-score is on record?
Answer: inactive: -2.31
